Measurements published in PubChem BioAssay AID222 (DTP/NCI, 2004).
The list shows only some results of the screen, not a fair sample: it gathers some chemical classes. Not every dose and run of a compound is shown. T/C: endpoint of the treated group in % of that of the vehicle group. Some doses have a count of surviving animals in place of a T/C: the source holds a T/C of zero for them, seemingly a mark for toxic or unscored doses. Some doses without a T/C left all or most animals alive at the check, yet need not have been tolerated: the source hardly ever lists a survival T/C far under the control, and the zero likely stands for such cases as well. Survivors were counted at the toxicity check, usually on the fifth day, unless a day is given; later deaths do not show. Schedule codes are those of the source, read here as Q, the interval in days (D) or hours (H), X, the number of doses. Some doses were run more than once; their values stand side by side, smallest first. Where survival is the endpoint, the PubChem record calls one and a half times the control and up active, and a quarter to a half above the control has no call in these data; cut-offs in other NCI protocols can differ. Brackets with × count equal records among those shown. Some T/C values are followed by the survivors on the day toxicity was checked, most often the fifth; where neither a count nor a note follows, no animal had died by that day.

System: C57BL/6 mice, intracerebral ependymoblastoma, median survival T/C
Experiment: NCI In Vivo Anticancer Drug Screen. Data for tumor model Ependymoblastoma (intracerebral) in C57BL/6 mice
Conditions: T/C endpoint: median survival time, schedule: Q01DX005 (ip), higher T/C = longer survival
Procedure: The antitumor activity of compounds was measured in mice bearing transplantable tumors. Survival or tumor size were measured and the results are expressed as the measurement made in the treated group (T) divided by the measurement made in the vehicle treated control group (C). The tumor model used in this assay is Ependymoblastoma (intracerebral) in C57BL/6 mice

SMILES | T/C (dose: 0.5 mg/kg/injection, vehicle: suspension in saline) | T/C (dose: 1.0 mg/kg/injection, vehicle: suspension in saline) | T/C (dose: 2.0 mg/kg/injection, vehicle: suspension in saline) | survivor count (dose: 4.0 mg/kg/injection, vehicle: suspension in saline) | survivor count (dose: 8.0 mg/kg/injection, vehicle: suspension in saline) | T/C (dose: 16.0 mg/kg/injection, vehicle: saline with Tween-80) | T/C (dose: 32.0 mg/kg/injection, vehicle: saline with Tween-80) | T/C (dose: 64.0 mg/kg/injection, vehicle: saline with Tween-80) | T/C (dose: 128.0 mg/kg/injection, vehicle: saline with Tween-80) | T/C (dose: 256.0 mg/kg/injection, vehicle: saline with Tween-80)
Cc1[nH]c(=O)[nH]c(=O)c1N(CCCl)CCCl | 110 % of control (2×) | 124 and 127 % of control | 124 and 132 % of control | 10 of 10 | 4 of 10 and 10 of 10 |  |  |  |  | 
COc1cc2c(c3oc4cccc(O)c4c(=O)c13)[C@@H]1C=CO[C@@H]1O2 |  |  |  |  |  | 89 [9 of 10 alive] and 96 % of control | 96 and 100 % of control | 101 % of control (2×) | 97 and 100 % of control | 96 and 98 % of control
